Further values from the same series stand in other lists.
Experiment: Interactions between salt concentration, temperature and pH on the state of matter of Py-C12 (Example 3)
Format: physicochemical
Design: key: X: liquid; o: solid
Conditions: 5% w/v
Method: […] The samples were combined with NaCl solutions using concentrations between 0 and 3 M in water and subsequently incubated at temperatures between 24° C. and 45° C.

CCCCCCCCCCCCNCCCNC(=O)C1CCC(=O)N1 (stereo not shown) [Py-C12, 5-N-carboxamido-2-pyrrolidone-N′-n-dodecyl propane-1,3-diamine]
state of matter (pH 4.0, 24° C., 0.5M NaCl): X | state of matter (pH 4.0, 24° C., 1.0M NaCl): X | state of matter (pH 4.0, 24° C., 1.5M NaCl): X | state of matter (pH 4.0, 24° C., 2.0M NaCl): o | state of matter (pH 4.0, 24° C., 2.5M NaCl): o | state of matter (pH 4.0, 24° C., 3.0M NaCl): o | state of matter (pH 4.0, 24° C., no NaCl): X | state of matter (pH 4.0, 32° C., 0.5M NaCl): X | state of matter (pH 4.0, 32° C., 1.0M NaCl): X | state of matter (pH 4.0, 32° C., 1.5M NaCl): X | state of matter (pH 4.0, 32° C., 2.0M NaCl): X | state of matter (pH 4.0, 32° C., 2.5M NaCl): o | state of matter (pH 4.0, 32° C., 3.0M NaCl): o | state of matter (pH 4.0, 32° C., no NaCl): X | state of matter (pH 4.0, 36° C., 0.5M NaCl): X | state of matter (pH 4.0, 36° C., 1.0M NaCl): X | state of matter (pH 4.0, 36° C., 1.5M NaCl): X | state of matter (pH 4.0, 36° C., 2.0M NaCl): X | state of matter (pH 4.0, 36° C., 2.5M NaCl): X | state of matter (pH 4.0, 36° C., 3.0M NaCl): X | state of matter (pH 4.0, 36° C., no NaCl): X | state of matter (pH 4.0, 45° C., 0.5M NaCl): X | state of matter (pH 4.0, 45° C., 1.0M NaCl): X | state of matter (pH 4.0, 45° C., 1.5M NaCl): X | state of matter (pH 4.0, 45° C., 2.0M NaCl): X | state of matter (pH 4.0, 45° C., 2.5M NaCl): X | state of matter (pH 4.0, 45° C., 3.0M NaCl): X | state of matter (pH 4.0, 45° C., no NaCl): X | state of matter (pH 7.0, 24° C., 0.5M NaCl): X | state of matter (pH 7.0, 24° C., 1.0M NaCl): X | state of matter (pH 7.0, 24° C., 1.5M NaCl): X | state of matter (pH 7.0, 24° C., 2.0M NaCl): o | state of matter (pH 7.0, 24° C., 2.5M NaCl): o | state of matter (pH 7.0, 24° C., 3.0M NaCl): o | state of matter (pH 7.0, 24° C., no NaCl): X | state of matter (pH 7.0, 28° C., 0.5M NaCl): X | state of matter (pH 7.0, 28° C., 1.0M NaCl): X | state of matter (pH 7.0, 28° C., 1.5M NaCl): X | state of matter (pH 7.0, 28° C., 2.0M NaCl): X | state of matter (pH 7.0, 28° C., 2.5M NaCl): o | state of matter (pH 7.0, 28° C., 3.0M NaCl): o | state of matter (pH 7.0, 28° C., no NaCl): X | state of matter (pH 7.0, 32° C., 0.5M NaCl): X | state of matter (pH 7.0, 32° C., 1.0M NaCl): X | state of matter (pH 7.0, 32° C., 1.5M NaCl): X | state of matter (pH 7.0, 32° C., 2.0M NaCl): X | state of matter (pH 7.0, 32° C., 2.5M NaCl): X | state of matter (pH 7.0, 32° C., 3.0M NaCl): o | state of matter (pH 7.0, 32° C., no NaCl): X | state of matter (pH 7.0, 36° C., 0.5M NaCl): X | state of matter (pH 7.0, 36° C., 1.0M NaCl): X | state of matter (pH 7.0, 36° C., 1.5M NaCl): X | state of matter (pH 7.0, 36° C., 2.0M NaCl): X | state of matter (pH 7.0, 36° C., 2.5M NaCl): X | state of matter (pH 7.0, 36° C., 3.0M NaCl): X | state of matter (pH 7.0, 36° C., no NaCl): X | state of matter (pH 7.0, 45° C., 0.5M NaCl): X | state of matter (pH 7.0, 45° C., 1.0M NaCl): X | state of matter (pH 7.0, 45° C., 1.5M NaCl): X | state of matter (pH 7.0, 45° C., 2.0M NaCl): X | state of matter (pH 7.0, 45° C., 2.5M NaCl): X | state of matter (pH 7.0, 45° C., 3.0M NaCl): X | state of matter (pH 7.0, 45° C., no NaCl): X | state of matter (pH 9.0, 28° C., 0.5M NaCl): o | state of matter (pH 9.0, 28° C., 1.0M NaCl): o | state of matter (pH 9.0, 28° C., 1.5M NaCl): o | state of matter (pH 9.0, 28° C., 2.0M NaCl): o | state of matter (pH 9.0, 28° C., 2.5M NaCl): o | state of matter (pH 9.0, 28° C., 3.0M NaCl): o | state of matter (pH 9.0, 28° C., no NaCl): o | state of matter (pH 9.0, 32° C., 0.5M NaCl): o | state of matter (pH 9.0, 32° C., 1.0M NaCl): o | state of matter (pH 9.0, 32° C., 1.5M NaCl): o | state of matter (pH 9.0, 32° C., 2.0M NaCl): o | state of matter (pH 9.0, 32° C., 2.5M NaCl): o | state of matter (pH 9.0, 32° C., 3.0M NaCl): o | state of matter (pH 9.0, 32° C., no NaCl): o | state of matter (pH 9.0, 36° C., 0.5M NaCl): o | state of matter (pH 9.0, 36° C., 1.0M NaCl): o | state of matter (pH 9.0, 36° C., 1.5M NaCl): o | state of matter (pH 9.0, 36° C., 2.0M NaCl): o | state of matter (pH 9.0, 36° C., 2.5M NaCl): o | state of matter (pH 9.0, 36° C., 3.0M NaCl): o | state of matter (pH 9.0, 36° C., no NaCl): o | state of matter (pH 9.0, 45° C., 0.5M NaCl): X | state of matter (pH 9.0, 45° C., 1.0M NaCl): X | state of matter (pH 9.0, 45° C., 1.5M NaCl): X | state of matter (pH 9.0, 45° C., 2.0M NaCl): X | state of matter (pH 9.0, 45° C., 2.5M NaCl): X | state of matter (pH 9.0, 45° C., 3.0M NaCl): X | state of matter (pH 9.0, 45° C., no NaCl): X
